## Screening data

Source: PubChem BioAssay AID1159506 (NCATS, 2015).

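Genome-wide siRNA knockdown in TC32 Ewing sarcoma cells, comparing luciferase light from an NR0B1-promoter reporter with a CMV-promoter reporter 48 hours after transfection.
Each siRNA was applied at 20 nM.
A z-score of the log NR0B1-over-CMV signal, less the median of siRNAs with the same seed; more negative means a stronger specific loss of the NR0B1 reporter.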

This is part of the screen; most of the strongest results are not listed here.
Sequences are the guide (antisense) strand, without overhang.

| siRNA | target gene | seed-corrected z-score |
|---|---|---|
| `UUUAUCAUUCUGAGGGUCG` | ARPC3 | 0.7842 |
| `UAUUUCUAAAGGUGGUUAU` | ELSPBP1 | 0.5284 |
| `UUGUUGUGGAGGUUGAGGG` | PODNL1 | 0.3612 |
| `ACAAUUCUUACCUAUGAGC` | NUBP1 | 0.6135 |
| `UUUGGUAAACCACCUAUGG` | IL1RL2 | 0.4206 |
| `UUAACUUGCAGCAUACUAC` | HAUS5 | -0.02352 |
| `ACUGAAAUUAUCCCGGUCA` | DPP6 | 0.8698 |
| `ACUCGAAUCAGGACCCUCU` | SELV | -0.006348 |
| `UCUCCUAAUAACGGUAUCC` | C19orf18 | -1.128 |
| `UCUACUUCAAUCUUGCGUC` | RNF103 | 0.2843 |
| `UUUGUUAGGAGACAAGUGG` | KCNB1 | 0.4358 |
| `AACAGGUUGAUGAUCACCC` | PLEKHG5 | -0.8474 |
| `UUCGGGACAGAGUACAUCG` | MYO9B | -0.2011 |
| `UCUUCUAUCAGAGGGUUGA` | EID2 | -0.03109 |
| `UUCAUUAGUACCUUCAUAG` | CD2AP | 0.036 |
| `AAAGUUUCAUCGUAUCCCG` | TSGA10IP | -0.7749 |
| `AGUAGUUCCACUAGGACCG` | PCDHA10 | -0.2202 |
| `UGUUGAAUUGCUUAGCUGG` | FAM111B | 0.3516 |
| `UGAGGUAAUAGAGAAGGGA` | TMEM234 | -0.2262 |
| `AUUCCAACAAUAUCAAGCU` | FRG1 | 0.7889 |
| `UAAAGAGGACCGUUUCUGU` | PROKR2 | -0.3882 |
| `UCAUAGACUGGAUAAGGCC` | IST1 | -0.3523 |
| `UGGUGUUACAGCGUGAACG` | EPB41L4A | -1.265 |
| `UCAGGUUCCAGAGUUUGAG` | USP18 | -1.066 |
| `UUUGCAAUUACAGGAUUGG` | OR52N4 | -0.02131 |
| `UCUGGAAGACGGGUACUAC` | PIGH | -0.2823 |
| `UGUGGACUCAGCGUGAACC` | ZNRD1-AS1 | -1.185 |
| `AGUGUAGAAACAGUCGACC` | MAP2K3 | 0.05124 |
| `AAGUUAGUCAGAUCAUUCC` | ECI2 | 0.3142 |
| `UCUGAAAUAAACUUGGGCG` | ZNF564 | -0.1729 |
| `UUGGUGAUGAGUCCAAUGC` | GPR12 | -0.205 |
| `UGCAGUAAAACCCUCGGUG` | PLPP3 | -0.2819 |
| `UUAGACAAGAAGUCAAUUC` | RAB41 | 0.05954 |
| `ACUAUAAUCAUGAAAGGCU` | SSBP3 | -0.4526 |
| `UGUAACUCAAUUGUCAGUC` | TAF7 | 0.595 |
| `UCAAAGUACAGGAGUGUUC` | GOLT1A | 0.7069 |
| `UUGGAUACCACGAUGCAGA` | GLP1R | -0.05608 |
| `UGCUCUAUAUGCAUUCUGC` | ALKBH1 | 0.1637 |
| `UACACUCAUACUUACAGUC` | PGAP3 | -0.4777 |
| `UUUCCAAUUUGUGCGUUUG` | C11orf57 | 0.1227 |
| `UCUAAUACAACAUAUGGGC` | ASTE1 | -0.5759 |
| `UUGGAUUCUAAUCUAAACC` | RAB11FIP2 | 1.417 |
| `UCCUCGUCCACCAUAAGCG` | GATSL3 | -0.1854 |
| `UUCGGGACACUGAACGUGU` | IFNLR1 | 0.2072 |
| `UCUUCAUCUAUGUCAAAUC` | METTL5 | 0.2697 |
| `UUUGGUUGAGGUAAGGGUG` | AKR1C6P | -0.6217 |
| `UUAAUUAAGGACUCCAGCU` | LARP1BP3 | 1.156 |
| `UCCGUCUUAAUUCUACGUG` | VPS4B | -0.7448 |
| `UACGAUGCUAGUAACGAGC` | NEO1 | 0.3011 |
| `AAUUAUAAGUGGAAACUGG` | KRTAP15-1 | -0.009405 |
| `UUCUGUUUUACAGCUCUAC` | LINC00886 | 0.3553 |
| `UUGAGUACUCAUGUUGGUC` | ZNF560 | 0.8282 |
| `UCUCGUGCAAAAUACACUG` | TAOK1 | -0.05617 |
| `UAUUCGAUGCGACUGAUCA` | CSNK1D | -0.2214 |
| `UUUAGACCUCGACUGGUGC` | PEG3 | 1.157 |
| `UUACCUUCUAUUAUCUCUC` | DDTL | 0.5251 |
| `UAUUCUAUAGGACUUGCAG` | VEPH1 | 0.9431 |

Repeated from the top, 4 entries:

| siRNA | target gene | seed-corrected z-score |
|---|---|---|
| `UUUAUCAUUCUGAGGGUCG` | ARPC3 | 0.7842 |
| `UAUUUCUAAAGGUGGUUAU` | ELSPBP1 | 0.5284 |
| `UUGUUGUGGAGGUUGAGGG` | PODNL1 | 0.3612 |
| `ACAAUUCUUACCUAUGAGC` | NUBP1 | 0.6135 |